Measurements reported in PubChem BioAssay AID1053208 (Peter MacCallum Cancer Centre, 2014)
This is one part, drawn at random, of about 17,000 reagents. Over the whole deposit, 788 (4.7%) got an active call. 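Calls rest on z-score classes alone; an extra cut-off of viability at most 70% of control was not applied to them.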 Entries without a mark were called inactive. Further read-outs or replicates are left out here.

Purpose: 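Genes whose silencing cuts survival of bone tumour cells only with doxorubicin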 (primary screen)
System: mouse osteosarcoma cells, early-passage culture from an engineered mouse model of fibroblastic bone tumour
Knock-down reagent: siRNA pool against mouse genes, 40 nM
Time to read-out: about 120 h (48 h before drug, then 72 h with drug)
Challenge: doxorubicin 100 nM for 72 h, roughly 30-40% inhibitory dose
Detection: 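Luminescent ATP signal taken as viability with or without 100 nM doxorubicin for 72 h; mean of two wells set against non-targeting siRNA and turned into robust z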
Direction: viability z-score with doxorubicin: higher = more viable cells under doxorubicin; viability z-score without drug: higher = more viable cells with knock-down alone; z-score of drug to no-drug ratio: higher = less drug sensitisation by knock-down
Hit rule: 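Called active if knock-down leaves viability unchanged without drug (z within -2 to 2) but lowers it with doxorubicin (z at or under -2)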

gene | combined z-score class | viability z-score with doxorubicin | viability z-score without drug | z-score of drug to no-drug ratio
Igbp1 (immunoglobulin (CD79A) binding protein 1) | no change with or without drug | -1.57 | -0.67 | -1.12
Or1o3 (olfactory receptor family 1 subfamily O member 3) | low cell count with doxorubicin only (active) | -2.14 | -0.51 | -1.8
Pcmt1 (protein-L-isoaspartate (D-aspartate) O-methyltransferase 1) | no change with or without drug | 0.22 | -0.51 | 0.67
Prss40 (serine protease 40) | no change with or without drug | 0.45 | 0.17 | 0.45
Sulf1 (sulfatase 1) | no change with or without drug | -0.45 | 0.17 | -0.45
Rpl13a (ribosomal protein L13A) | low cell count with and without drug | -4.05 | -3.2 | -2.47
Pitx2 (paired-like homeodomain transcription factor 2) | no change with or without drug | -1.24 | -0.84 | -0.67
Slc45a1 | no change with or without drug | -0.45 | 0.51 | -0.67
Bfsp2 (beaded filament structural protein 2, phakinin) | no change with or without drug | 0.67 | 0.84 | 0.22
Sva (seminal vesicle antigen) | no change with or without drug | 1.57 | -0.84 | 2.47
Nup50 (nucleoporin 50) | no change with or without drug | 0.45 | -0.17 | 0.67
Nkiras2 (NFKB inhibitor interacting Ras-like protein 2) | no change with or without drug | 0.67 | 0.51 | 0.45
Nudt11 (nudix hydrolase 11) | high cell count without drug only | 0.79 | 2.19 | -0.45
Nlrp9b (NLR family, pyrin domain containing 9B) | no change with or without drug | 0.22 | 1.52 | -0.67
Arpc4 (actin related protein 2/3 complex, subunit 4) | high cell count with and without drug | 2.81 | 2.19 | 1.35
Mmut (methylmalonyl-Coenzyme A mutase) | high cell count without drug only | 1.91 | 2.36 | 0.45
Tdrd6 (tudor domain containing 6) | no change with or without drug | 0.22 | 0.34 | 0.11
Dhdh (dihydrodiol dehydrogenase) | no change with or without drug | -1.8 | 0.67 | -2.14
Fgf4 (fibroblast growth factor 4) | no change with or without drug | -1.12 | -0.51 | -0.79
Pou4f1 (POU domain, class 4, transcription factor 1) | no change with or without drug | 0.67 | 0.17 | 0.67
